In US20220087987A1, “A METHOD FOR TREATING SWI/SNF COMPLEX-DEFICIENT CANCERS COMPRISING GLUTATHIONE (GSH) METABOLIC PATHWAY INHIBITOR” (National Cancer Center, priority 2018, published 2022):

Assays:
[1] = system: ARID1A-KO HCT116 cells; test: Drug library screen, cell viability (CellTiter-Glo); type: cell-based; settings: Homo sapiens, HCT-116, 120 h, 10 μM for 5 days, relative to cells treated with solvent (DMSO)
Description: (§1) ARID1A-WT and ARID1A-KO HCT116 cancer cells were used for screening assays. […] Cell viability was assessed after 5 days using the CellTiter-Glo Luminescent Cell Viability Assay (Promega). Luminescence was measured using an Envision Multi-label plate reader (PerkinElmer). The luminescence reading was used to determine the cell viability relative to that of cells treated with solvent (DMSO). Candidate compounds were considered if viability of ARID1A-KO cells was less than […] was more than 80%.

[2] = as above; type: cell-based; settings: human; HCT116 ARID1A-WT; 10 μM for 5 days; relative to cells treated with solvent (DMSO)
Description: as §1

## CCN(CC)CC(=O)Nc1c(C)cccc1C [Lidocaine]
[1]
  viability at 10 µM: 111%
[2]
  viability at 5 days, 10 μM: 103%
